Each number is a percent effect as filed.
The record does not define 0% and 100%; most values in the screen are far below 50% and negative numbers occur (in some assays of this library far below -100).
Compounds were drawn at random from those tested, without regard to their results.

The chains behind the UniProt entries cited, without tags or fusion partners. Residues count along the entry.
UniProt Q8IDJ8, 1-583: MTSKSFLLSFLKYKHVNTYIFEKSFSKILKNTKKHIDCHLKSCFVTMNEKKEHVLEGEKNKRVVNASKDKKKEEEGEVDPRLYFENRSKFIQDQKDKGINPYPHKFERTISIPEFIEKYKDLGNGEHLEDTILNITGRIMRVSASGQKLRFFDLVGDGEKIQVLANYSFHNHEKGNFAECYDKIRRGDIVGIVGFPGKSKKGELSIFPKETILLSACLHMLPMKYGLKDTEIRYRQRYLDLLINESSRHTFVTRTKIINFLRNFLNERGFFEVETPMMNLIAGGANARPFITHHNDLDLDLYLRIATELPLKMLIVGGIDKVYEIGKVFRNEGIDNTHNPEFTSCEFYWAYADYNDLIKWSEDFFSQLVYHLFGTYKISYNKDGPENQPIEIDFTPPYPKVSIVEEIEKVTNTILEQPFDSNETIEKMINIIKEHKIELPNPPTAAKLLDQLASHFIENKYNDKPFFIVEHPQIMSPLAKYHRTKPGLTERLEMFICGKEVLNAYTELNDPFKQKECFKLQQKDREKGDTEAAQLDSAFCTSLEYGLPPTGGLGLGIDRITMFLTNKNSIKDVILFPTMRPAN

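Enzyme assay of the cytosolic lysyl-tRNA synthetase in 384-well plates, read by luminescence. Target: Lysine-tRNA ligase, Plasmodium falciparum 3D7 (UniProt Q8IDJ8). Concentration: 30 µM. Direction is inferred from only a few compounds that gave an IC50; most scored high, so higher reads as stronger inhibition. About 69,000 compounds were tested under these conditions; 0.071% (about 49) showed 50% or more at least once.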

SMILES	percent effect
Cc1nc(CN2CC[C@H]3C[C@H](c4ccncn4)O[C@@H]3C2)cs1	2.807
CC(NC(=O)CSCC#N)c1cccc(NC(=O)c2ccccc2)c1 (centres unmarked)	2.346
Cc1noc(C)c1CN1C[C@H](C)[C@]2(CCN(Cc3cccnc3)C2=O)C1	5.726
Cc1noc(C)c1CN1C[C@H](OCC2CCN(C)CC2)[C@H]2COC[C@H]21	0.6081
CN(C)C(=O)N1CCC2(CC1)CCN(Cc1ccccn1)C2=O	8.937
Cn1ncc2c1CCCC2NCc1cccc(F)c1 (centres unmarked)	0.4587
CCCNC(=O)CN1CCN(c2nc(CC)ns2)CC1	1.504
CN(Cc1ccccn1)C1CC2(CCN(Cc3ccccn3)CC2)C1	1.008
CCCn1ccnc1CN1CCCC1c1ccccn1 (centres unmarked)	3.661
COc1ccccc1NC(=O)CC(C)NCCc1sc(C)nc1C (centres unmarked)	-0.3694
Cc1ncnc2c1CCN(C(=O)c1ccsc1)CC2	2.378
Cc1nc(C)n(CC2CCCN(Cc3ccccc3C#N)C2)n1 (centres unmarked)	-1.273
CCC(NS(C)(=O)=O)c1ccccc1OC (centres unmarked)	3.787
CC1(C(=O)N2CCOCC2)CN(Cc2cccnc2)CCO1 (centres unmarked)	3.521
CCN(CC)C1CCN(C(=O)Nc2cc(F)c(OC)c(F)c2)C1 (centres unmarked)	1.247
O=C(c1cncc(N2CCC3(CC2)NCCNC3=O)n1)N1CCCCC1	1.449
Fc1ccc(Sc2ccccc2CNC2=NCCN2)cc1	-2.607
CCNc1c(C#N)c(=O)n(C)c(=O)n1C	7.754
Oc1ccc(Br)c(CNc2cccc(-c3nnc[nH]3)c2)c1	-4.315
Cc1nc(C)c(COc2ccc(S(=O)(=O)N(C)C)cc2)s1	-3.029
CC(NC(=O)C(C)(C)C)c1cc(O)nc(-c2cccnc2)n1 (centres unmarked)	0.859
COCCNC(=O)C1CCCN1S(=O)(=O)c1sc(=O)[nH]c1C (centres unmarked)	3.386
Cc1cccc(Cn2ccc(NS(C)(=O)=O)n2)c1	0.4377
CCN(CC)C(=O)CN1CCCC1c1nc(C)c2c(n1)N(C)C(=O)CC2 (centres unmarked)	0.5979
O=C(NCCC(=O)N1CCCc2ccccc21)c1cc(F)cc(F)c1	-0.2167
NC(=O)N1CCC2(CC1)CN(c1ncccn1)CCO2	0.8885
CC(=O)NCCNC(=O)CN1CCCC1Cn1nc(C)nc1C (centres unmarked)	5.825
COc1cc([C@@H]2N[C@H](c3nccs3)Cc3ccsc32)cc(OC)c1OC	3.127
CCC(C)NC(=O)c1cccc(CNC(=O)CC(F)(F)F)c1 (centres unmarked)	4.608
CC(C)Oc1cccc(C(=O)C2CCCN(C(=O)c3cncs3)C2)c1 (centres unmarked)	2.729
CN(C)CCN1CCO[C@@H]2CCN(C(=O)c3cccn3C)CC[C@H]21	2.267
O=C(NCc1cc(Br)cs1)Nc1cn[nH]c1	0.7877
COc1cccc(OC)c1CN1CC(O)CN(S(C)(=O)=O)CC1=O (centres unmarked)	-1.357
CN(C)[C@@H]1CN(C(=O)Cc2cccc(F)c2)[C@@H]2CCCO[C@H]12	1.162
COc1ccc(-c2nccn2CCN2CCCCC2)c(OC)c1OC	1.349
NC(=O)c1cccc(OCCC(=O)NC2CCc3c(F)cccc32)c1 (centres unmarked)	2.261
CC(=O)N1CCc2nnc(C3CCCCN3CC3CC3)n2CC1 (centres unmarked)	1.14
Cc1nc(CN2CC[C@H]3[C@H]2CCN3c2ncccn2)cs1	5.483
CCOCC1CN(C(=O)c2cnoc2C)Cc2cn(CC3CC3)nc21 (centres unmarked)	16.2
Cc1ccccc1OCCCC(=O)N(C)CCC#N	1.157
O[C@H]1Cc2ccccc2[C@H]1n1ccnc1-c1cc2n(n1)CCNC2	4.654
CCN(CC)S(=O)(=O)N(C)Cc1ccncc1	5.45
CC(C)n1cc2cc(NC(=O)CCS(C)(=O)=O)ccc2n1	4.766
Cc1noc(C2CCC3(CCN(C(=O)C4CCOCC4)CC3)O2)n1 (centres unmarked)	2.107
CNC(=O)NC(=O)CSc1ccc2c(c1)CCC2	-1.758
CNC(=O)c1cc2c(nc1NC(C)C)CCNCC2	0.6241
CC(C)c1nnc(N2C[C@@H]3CC[C@H](C2)N(Cc2ccccc2)C3)s1	3.115
CNC(=O)CN1CCC(NC(=O)Cc2ccc3c(c2)OCCO3)CC1	1.153
O=C(CNC(=O)C1CC1)NCc1ccc(Cl)s1	3.023
O=C(c1cc(C2CC2)[nH]n1)N1CCN(Cc2ccncc2)CC1	4.297
N[C@@H]1c2ccccc2C2(CCN(C(=O)c3ccc(CO)o3)CC2)[C@H]1O	-0.01123
CN(Cc1nnnn1C1CC1)c1cccc2ccccc12	4.666
CCC[C@@H](NC(N)=O)C(=O)N1CCc2c(Cl)cccc2C1	-3.131
Cc1cncc(NC(=O)c2ccc(CN3CC[C@H](O)C3)cc2)c1	-3.305
Cc1ncc2c(n1)CN(C(C(N)=O)c1ccc(F)cc1)CC2 (centres unmarked)	1.864
COC(=O)C1CCN(C(=O)Nc2cc(-n3cccc3)ccc2F)CC1	2.377
Cc1noc(CN2CCCC(Cn3nc(C)nc3C)C2)n1 (centres unmarked)	0.0551
CCC1COCCN1C(=O)NCc1nccn1Cc1ccccc1 (centres unmarked)	0.06709
CC(C)(C)NC(=O)CN1CCCN(Cc2ccc(C#N)cc2)CC1	1.179
CNc1ncccc1C(=O)N1CCN(Cc2ccc(C)cc2)C(=O)C1C (centres unmarked)	0.8411
COc1ccc(C(=O)N2C[C@@H](O)[C@H](NCCc3ncccc3C)C2)cc1	1.087
CC(C)C(=O)NC1CCCN(C(=O)c2ccccc2O)C1 (centres unmarked)	-0.3857
CC(C)Nc1nc(N2CCCC2)nc2c1CN(C)CC2	-0.9435
COc1ccc(S(=O)(=O)N2CCn3nc(C)nc3C2)cc1C	7.724
Cc1cccc(CN2CCOCC3(CCN(C4CCOCC4)C3)C2)c1 (centres unmarked)	8.711
CC1CCc2nn(CCNC(=O)c3ccco3)c(=O)cc2C1 (centres unmarked)	1.23
CC(=O)Nc1ccc(-n2ccc3nc(N4CCCC4)ncc3c2=O)cc1	-2.274
CC(C)N1CCCC1c1cc(C(F)(F)F)[nH]n1 (centres unmarked)	1.024
O=C1CN(c2ccc(C(=O)N3CCc4ccccc43)cn2)CCN1	4.722
O=C(CCn1cncn1)N1CC[C@@H](c2ccc3ccccc3c2)[C@H](O)C1	4.288
c1ccc(N2CCC3(COCCN(c4ncccn4)C3)C2)nc1 (centres unmarked)	4.71
CCCN1CCN(C(=O)c2cc3ccccc3cn2)[C@H]2CS(=O)(=O)C[C@H]21	4.932
COC(=O)CCN1CCCC1c1ccccc1Cl (centres unmarked)	2.447
c1ncn(CC2CN(Cc3ccc4c(c3)OCCO4)CCO2)n1 (centres unmarked)	0.9866
CS(=O)(=O)CCCNC(=O)Nc1sc2ccccc2c1Cl	0.4243
CCn1cc(NC(=O)NCC(C)N(C)C)cn1 (centres unmarked)	-0.5788
COC(=O)C(NC(=O)c1ccc(NC2CC2)nc1)c1ccccc1 (centres unmarked)	3.858
CCOC[C@H]1CC[C@H]2[C@H](CCN2C(=O)c2ccncc2F)O1	2.901
O=C1CN(C(=O)C2CCCOC2)CCN1Cc1ccc(Cl)cc1 (centres unmarked)	0.4022
CCn1c2c(ccc1=O)CC(N)CC2 (centres unmarked)	-2.501
FC(F)(F)CCc1ccnc(N2CCN(CCc3ccncc3)CC2)n1	3.285
O=C(c1ccco1)N1C[C@H]2CCCN(Cc3ccoc3)[C@H]2C1	7.848
CC(C)CN1CCN(C(=O)CCn2cccn2)CC1	0.05885

Data taken from ChEMBL document CHEMBL3988442, “University of Dundee, Small-Polar-MMV Screening Library” (2021).